{"source": "patent US20050014690A1", "about": "“Styryl acrylonitrile compounds and their use to promote myelopoiesis” (priority 2001, published 2005)", "test_system": "normal bone marrow mononuclear cells", "experiment": "Long-term culture-initiating cell (LTC-IC) assay on stroma after pre-incubation", "type": "cell-based, human", "conditions": "colonies after pre-incubation with 50 uM for 5 hours", "source_text": "The long-term BM culture system provides the means to investigate the proliferation and differentiation properties of primitive hematopoietic cells. To assess the long-term effects of CR4 on early progenitor cells the long-term culture-initiating cell (LTC-IC) assay was set up utilizing stromal microenvironment. Briefly, to obtain stromal cells bone marrow mononuclear cells were suspended in long-term culture (LTC) media (MyeloCult Stem Cell Technologies Inc.) supplemented with 10^−6 mol/L hydrocortisone sodium succinate (HSS; Sigma Aldrich Canada Ltd., Mississauga, Ont.,Canada). Approximately 1×10^7 cells were plated into 25 cm^2 tissue culture flasks (Becton Dickinson Labware, Franklin Lakes, N.J., USA) and incubated for 3 days at […] in a humidified atmosphere with 5% CO2 followed by incubation at 33° C. Cultures were re-fed weekly by replacing half of the medium. Following stromal confluency (3-6 weeks) cells were trypsinized and irradiated (1,500 cGy) using a Cs source. Stromal cells were again replated in LTC media at a concentration of 0.5-1.0×10^6 cells per 35 mm culture dishes (Nunc-Gibco BRL, Gaithersburg, Md.). Subcultured stroma was incubated for 2-3 days (at greater than 70% confluency) prior to co-culturing with fresh non-adherent overlay of hematopoietic cells. […]", "data": [{"smiles": "N#C/C(=C\\C=C\\c1ccc(O)c(O)c1)C(=O)NCc1ccccc1", "note": "[CR4, (E,E)-2-(Benzylaminocarbonyl)-3-(3,4-dihydroxystyryl)acrylonitrile]", "values": [{"measurement": "colony morphology", "value": "normal morphology"}, {"measurement": "cytokine growth dependency of colonies", "value": "demonstrated cytokine growth dependency"}]}]}
